Measured values reported in article PMC10298649.
No constants are given. Whether binding was seen depends on the method and setting. Binding seen in cells or lysates may run through a third protein. Binding can be weak; no strength is given. Tags and fused reporters may be left off the sequences shown.

The chains behind the UniProt entries cited, without tags or fusion partners. Where a name states a change or a piece, a line headed by the entry shows the natural chain unless it says otherwise.
UniProt Q9SGT7: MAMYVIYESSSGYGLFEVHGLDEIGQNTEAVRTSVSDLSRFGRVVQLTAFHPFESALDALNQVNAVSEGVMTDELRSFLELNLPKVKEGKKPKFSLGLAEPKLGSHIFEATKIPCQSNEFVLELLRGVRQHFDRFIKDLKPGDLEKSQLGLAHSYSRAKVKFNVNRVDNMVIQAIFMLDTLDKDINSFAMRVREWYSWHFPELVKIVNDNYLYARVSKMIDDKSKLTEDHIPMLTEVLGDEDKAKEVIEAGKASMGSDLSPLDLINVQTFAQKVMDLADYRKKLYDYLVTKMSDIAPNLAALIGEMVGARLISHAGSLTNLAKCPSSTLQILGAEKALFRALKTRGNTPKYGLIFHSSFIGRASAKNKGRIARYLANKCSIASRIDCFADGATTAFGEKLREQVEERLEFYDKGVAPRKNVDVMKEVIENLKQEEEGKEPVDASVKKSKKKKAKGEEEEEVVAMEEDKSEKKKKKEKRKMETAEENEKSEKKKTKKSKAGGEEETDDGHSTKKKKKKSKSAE

T1: FIB2 fused to cYFP (Arabidopsis thaliana) (UniProt Q94AH9)
T1 sequence: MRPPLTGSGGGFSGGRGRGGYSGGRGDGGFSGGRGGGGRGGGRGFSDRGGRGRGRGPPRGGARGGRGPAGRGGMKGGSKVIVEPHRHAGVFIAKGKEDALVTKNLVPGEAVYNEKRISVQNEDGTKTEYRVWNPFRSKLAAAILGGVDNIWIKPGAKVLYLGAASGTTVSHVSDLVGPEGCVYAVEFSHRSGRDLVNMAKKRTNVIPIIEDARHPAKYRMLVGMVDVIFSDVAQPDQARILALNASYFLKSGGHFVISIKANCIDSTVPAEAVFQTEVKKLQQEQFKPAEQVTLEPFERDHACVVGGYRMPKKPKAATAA

B1: HD2B fused to nYFP (protein, UniProt Q56WH4 1-306)
chain: MEFWGVAVTPKNATKVTPEEDSLVHISQASLDCTVKSGESVVLSVTVGGAKLVIGTLSQDKFPQISFDLVFDKEFELSHSGTKANVHFIGYKSPNIEQDDFTSSDDEDVPEAVPAPAPTAVTANGNAGAAVVKADTKPKAKPAEVKPAEEKPESDEEDESDDEDESEEDDDSEKGMDVDEDDSDDDEEEDSEDEEEEETPKKPEPINKKRPNESVSKTPVSGKKAKPAAAPASTPQKTEEKKKGGHTATPHPAKKGGKSPVNANQSPKSGGQSSGGNNNKKPFNSGKQFGGSNNKGSNKGKGKGRA

Tests used:
[1] = molecular target: T1, FIB2 fused to cYFP (Arabidopsis thaliana); assay: split reporter; BiFC in Arabidopsis mesophyll protoplasts; nYFP and cYFP fusions from pBiFCt-2in1-NN, PEG transformation; YFP signal by confocal microscopy after 16 h to 24 h in the dark (legend: 24 h at 25 °C); RFP as internal marker for transformation
[2] = molecular target: NOP56 fused to cYFP (Arabidopsis thaliana) (UniProt Q9SGT7); assay: as above

Molecule	binding [1]	binding [2]
HD2A fused to nYFP (Arabidopsis thaliana)	binds	–
B1	–	binds
